No constants are given. Whether binding was seen depends on the method and setting. Binding seen in cells or lysates may run through a third protein. Some binding calls cover weakened binding; strength is not graded here. Where a sequence is shown, tags or fusion partners need not be part of it.

The target in the assay is T1, GST-PLEKHA7 WW-PH (amino acids 1–284) (UniProt Q6IQ23).
T1 sequence: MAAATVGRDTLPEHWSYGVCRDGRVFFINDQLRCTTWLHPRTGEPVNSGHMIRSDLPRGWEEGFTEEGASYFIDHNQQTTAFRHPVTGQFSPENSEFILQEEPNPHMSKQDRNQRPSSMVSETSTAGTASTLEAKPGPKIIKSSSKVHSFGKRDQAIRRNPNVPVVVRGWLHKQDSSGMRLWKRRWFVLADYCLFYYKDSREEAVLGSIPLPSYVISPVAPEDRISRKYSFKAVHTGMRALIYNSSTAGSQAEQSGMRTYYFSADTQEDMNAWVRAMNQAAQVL
In words: pull-down; 5 ug GST-fusion bait coupled to glutathione magnetic agarose beads, overnight at 4 °C with normalized HEK293T lysates of preys, without or with increasing amounts of an HA-tagged additional (third) protein; lysis buffer NaCl 150 mM, Tris-HCl 20 mM pH 7.5, Nonidet P-40 1%, EDTA 1 mM; immunoblot with anti-GFP; only the target purified.

B1: PDZD11-HA (protein, UniProt Q5EBL8 1-140)
chain: MDSRIPYDDYPVVFLPAYENPPAWIPPHERVHHPDYNNELTQFLPRTITLKKPPGAQLGFNIRGGKASQLGIFISKVIPDSDAHRAGLQEGDQVLAVNDVDFQDIEHSKAVEILKTAREISMRVRFFPYNYHRQKERTVH
With B1, the binding entry was “binds”.

These data come from article PMC9307954.
